# Test results as given in the supplement of paper PMC12067093, “Discovery and optimisation of a covalent ligand for TRIM25 and its application to targeted protein ubiquitination” (Chemical Science, 2025).
# By UniProt entry, the sequences of proteins in these tests, tags left out. Where a name states a change or a piece, a line headed by the entry shows the natural chain unless it says otherwise.
# UniProt O60449: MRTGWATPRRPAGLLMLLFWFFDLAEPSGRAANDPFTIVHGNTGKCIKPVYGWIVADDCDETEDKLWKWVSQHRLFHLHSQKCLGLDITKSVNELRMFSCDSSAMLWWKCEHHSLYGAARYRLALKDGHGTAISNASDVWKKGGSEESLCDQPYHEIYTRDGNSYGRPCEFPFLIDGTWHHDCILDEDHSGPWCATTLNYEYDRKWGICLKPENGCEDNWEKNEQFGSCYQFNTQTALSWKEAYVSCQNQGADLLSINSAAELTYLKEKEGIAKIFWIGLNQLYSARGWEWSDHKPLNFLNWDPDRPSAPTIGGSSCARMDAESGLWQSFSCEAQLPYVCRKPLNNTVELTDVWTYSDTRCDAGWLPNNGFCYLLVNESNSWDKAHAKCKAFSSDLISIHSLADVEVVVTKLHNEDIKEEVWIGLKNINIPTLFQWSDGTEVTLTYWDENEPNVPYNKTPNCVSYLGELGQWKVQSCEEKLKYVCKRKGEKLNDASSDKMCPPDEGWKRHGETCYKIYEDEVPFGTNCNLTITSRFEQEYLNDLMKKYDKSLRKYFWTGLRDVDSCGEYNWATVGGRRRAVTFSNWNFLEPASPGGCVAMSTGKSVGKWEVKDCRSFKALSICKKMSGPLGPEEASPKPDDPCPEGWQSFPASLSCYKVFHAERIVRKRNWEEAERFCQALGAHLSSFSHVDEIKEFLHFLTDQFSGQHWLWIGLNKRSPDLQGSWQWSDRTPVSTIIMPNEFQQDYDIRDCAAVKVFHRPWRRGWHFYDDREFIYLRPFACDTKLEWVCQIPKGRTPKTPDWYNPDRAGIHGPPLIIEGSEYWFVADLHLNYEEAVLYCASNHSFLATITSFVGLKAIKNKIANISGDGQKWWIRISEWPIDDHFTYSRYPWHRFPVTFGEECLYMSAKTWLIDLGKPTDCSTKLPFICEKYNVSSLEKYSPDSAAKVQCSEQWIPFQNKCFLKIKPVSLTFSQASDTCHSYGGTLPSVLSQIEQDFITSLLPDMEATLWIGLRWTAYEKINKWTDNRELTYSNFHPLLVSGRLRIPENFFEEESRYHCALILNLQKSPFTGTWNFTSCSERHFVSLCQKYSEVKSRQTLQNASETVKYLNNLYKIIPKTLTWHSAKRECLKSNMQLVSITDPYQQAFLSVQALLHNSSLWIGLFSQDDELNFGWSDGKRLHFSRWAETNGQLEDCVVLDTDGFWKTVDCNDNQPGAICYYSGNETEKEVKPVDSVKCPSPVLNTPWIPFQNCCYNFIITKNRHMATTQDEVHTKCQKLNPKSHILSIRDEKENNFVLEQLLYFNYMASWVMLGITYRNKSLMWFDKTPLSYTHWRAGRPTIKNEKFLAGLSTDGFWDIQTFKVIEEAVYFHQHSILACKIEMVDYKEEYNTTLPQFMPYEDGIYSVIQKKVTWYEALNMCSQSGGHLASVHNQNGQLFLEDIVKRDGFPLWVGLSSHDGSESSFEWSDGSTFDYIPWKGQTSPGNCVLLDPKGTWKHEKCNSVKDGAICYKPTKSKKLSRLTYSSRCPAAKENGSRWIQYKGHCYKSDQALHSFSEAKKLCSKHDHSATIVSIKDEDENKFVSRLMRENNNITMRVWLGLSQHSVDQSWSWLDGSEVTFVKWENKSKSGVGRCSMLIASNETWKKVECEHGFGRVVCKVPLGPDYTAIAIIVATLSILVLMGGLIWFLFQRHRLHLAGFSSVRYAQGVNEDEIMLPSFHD
# UniProt P56192: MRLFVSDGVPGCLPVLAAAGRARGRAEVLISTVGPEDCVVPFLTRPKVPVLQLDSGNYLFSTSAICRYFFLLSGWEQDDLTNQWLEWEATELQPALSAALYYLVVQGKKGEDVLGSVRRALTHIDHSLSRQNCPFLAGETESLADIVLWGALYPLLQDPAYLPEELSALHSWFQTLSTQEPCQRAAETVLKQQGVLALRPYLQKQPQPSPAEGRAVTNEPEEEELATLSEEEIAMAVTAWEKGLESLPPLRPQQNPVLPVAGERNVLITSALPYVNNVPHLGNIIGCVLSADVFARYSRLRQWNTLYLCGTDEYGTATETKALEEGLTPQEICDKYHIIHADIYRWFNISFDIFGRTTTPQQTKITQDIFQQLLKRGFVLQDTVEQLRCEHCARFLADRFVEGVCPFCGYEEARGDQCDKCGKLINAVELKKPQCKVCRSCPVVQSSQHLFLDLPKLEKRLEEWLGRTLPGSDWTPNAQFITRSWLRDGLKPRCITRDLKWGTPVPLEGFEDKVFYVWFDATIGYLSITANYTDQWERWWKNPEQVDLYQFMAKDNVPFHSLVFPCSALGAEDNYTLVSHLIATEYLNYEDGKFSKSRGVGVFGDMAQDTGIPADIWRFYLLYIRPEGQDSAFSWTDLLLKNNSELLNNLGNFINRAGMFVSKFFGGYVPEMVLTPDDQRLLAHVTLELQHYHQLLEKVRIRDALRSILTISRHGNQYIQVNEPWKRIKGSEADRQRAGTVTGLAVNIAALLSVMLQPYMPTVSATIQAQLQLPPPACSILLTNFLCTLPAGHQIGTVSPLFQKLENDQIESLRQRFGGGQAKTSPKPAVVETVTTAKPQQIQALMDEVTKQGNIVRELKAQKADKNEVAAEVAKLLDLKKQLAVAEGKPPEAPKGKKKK
# UniProt Q5U5X0: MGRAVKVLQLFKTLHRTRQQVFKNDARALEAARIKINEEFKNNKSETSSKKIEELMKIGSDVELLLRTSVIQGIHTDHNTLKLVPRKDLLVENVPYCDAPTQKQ
# UniProt P31153, whole entry, looked up: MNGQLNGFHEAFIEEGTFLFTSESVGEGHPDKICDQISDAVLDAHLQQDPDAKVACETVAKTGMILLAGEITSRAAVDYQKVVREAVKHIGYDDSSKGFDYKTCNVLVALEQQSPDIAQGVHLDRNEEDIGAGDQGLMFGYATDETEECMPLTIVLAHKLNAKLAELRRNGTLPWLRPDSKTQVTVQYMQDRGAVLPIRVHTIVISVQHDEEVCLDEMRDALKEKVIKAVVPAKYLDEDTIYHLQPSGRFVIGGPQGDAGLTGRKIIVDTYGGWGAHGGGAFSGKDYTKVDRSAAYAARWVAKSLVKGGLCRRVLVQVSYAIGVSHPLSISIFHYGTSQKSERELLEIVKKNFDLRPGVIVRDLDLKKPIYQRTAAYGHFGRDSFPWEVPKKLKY
# UniProt O95232: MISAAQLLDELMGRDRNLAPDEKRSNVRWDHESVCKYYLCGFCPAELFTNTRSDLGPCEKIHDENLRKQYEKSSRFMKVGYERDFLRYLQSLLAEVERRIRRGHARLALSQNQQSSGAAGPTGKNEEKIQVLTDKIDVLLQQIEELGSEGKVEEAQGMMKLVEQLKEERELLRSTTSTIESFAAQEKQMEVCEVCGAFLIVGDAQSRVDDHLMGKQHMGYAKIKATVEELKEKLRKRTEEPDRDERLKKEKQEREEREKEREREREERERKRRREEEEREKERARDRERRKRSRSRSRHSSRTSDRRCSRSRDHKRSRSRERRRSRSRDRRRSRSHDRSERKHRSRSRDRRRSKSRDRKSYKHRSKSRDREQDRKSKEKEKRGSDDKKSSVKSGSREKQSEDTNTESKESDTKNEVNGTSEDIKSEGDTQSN
# UniProt O95819: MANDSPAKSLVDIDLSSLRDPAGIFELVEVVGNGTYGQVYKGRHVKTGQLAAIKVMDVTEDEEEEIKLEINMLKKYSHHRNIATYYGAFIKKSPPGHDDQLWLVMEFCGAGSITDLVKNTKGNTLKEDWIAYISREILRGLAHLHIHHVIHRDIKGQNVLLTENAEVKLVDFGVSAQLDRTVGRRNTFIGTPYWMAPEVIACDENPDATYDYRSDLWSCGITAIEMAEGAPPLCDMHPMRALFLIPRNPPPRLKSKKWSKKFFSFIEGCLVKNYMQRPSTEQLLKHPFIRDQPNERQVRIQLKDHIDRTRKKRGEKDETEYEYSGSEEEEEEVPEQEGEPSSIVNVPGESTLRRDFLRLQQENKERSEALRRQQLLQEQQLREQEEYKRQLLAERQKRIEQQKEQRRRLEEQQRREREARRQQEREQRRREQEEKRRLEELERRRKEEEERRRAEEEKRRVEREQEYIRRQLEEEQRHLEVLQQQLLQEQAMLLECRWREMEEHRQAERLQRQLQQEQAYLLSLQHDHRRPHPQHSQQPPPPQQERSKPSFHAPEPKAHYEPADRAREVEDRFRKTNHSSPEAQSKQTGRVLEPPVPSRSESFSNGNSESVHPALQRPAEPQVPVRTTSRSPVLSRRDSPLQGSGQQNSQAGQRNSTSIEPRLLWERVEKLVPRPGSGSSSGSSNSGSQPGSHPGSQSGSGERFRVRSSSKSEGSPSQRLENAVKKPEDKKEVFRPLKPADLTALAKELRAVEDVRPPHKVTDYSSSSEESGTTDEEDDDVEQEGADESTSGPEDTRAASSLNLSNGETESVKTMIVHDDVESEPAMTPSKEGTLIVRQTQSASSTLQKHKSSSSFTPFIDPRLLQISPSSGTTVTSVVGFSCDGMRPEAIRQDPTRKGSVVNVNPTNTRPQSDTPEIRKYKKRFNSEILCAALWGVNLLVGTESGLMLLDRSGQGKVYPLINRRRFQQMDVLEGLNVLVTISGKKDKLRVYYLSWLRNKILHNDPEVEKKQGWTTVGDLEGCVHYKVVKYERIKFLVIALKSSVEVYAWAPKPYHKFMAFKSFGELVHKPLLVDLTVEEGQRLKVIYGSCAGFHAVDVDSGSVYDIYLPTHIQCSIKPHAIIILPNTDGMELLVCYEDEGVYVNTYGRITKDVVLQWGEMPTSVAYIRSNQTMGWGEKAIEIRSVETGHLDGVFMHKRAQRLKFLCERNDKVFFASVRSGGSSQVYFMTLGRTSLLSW
# UniProt O75608: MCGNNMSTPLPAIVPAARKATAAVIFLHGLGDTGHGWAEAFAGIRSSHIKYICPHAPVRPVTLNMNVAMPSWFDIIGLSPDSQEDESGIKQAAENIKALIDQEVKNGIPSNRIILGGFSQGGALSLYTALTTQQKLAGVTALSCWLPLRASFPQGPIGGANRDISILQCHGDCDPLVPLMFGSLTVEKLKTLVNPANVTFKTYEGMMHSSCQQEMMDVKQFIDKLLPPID
# UniProt O95372: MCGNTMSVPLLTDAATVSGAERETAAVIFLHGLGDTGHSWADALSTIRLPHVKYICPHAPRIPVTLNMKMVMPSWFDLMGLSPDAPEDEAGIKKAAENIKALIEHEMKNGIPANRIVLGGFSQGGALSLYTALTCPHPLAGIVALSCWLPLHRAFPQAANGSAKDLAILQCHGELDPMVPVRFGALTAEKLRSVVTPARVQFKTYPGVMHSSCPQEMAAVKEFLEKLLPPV
# UniProt Q9NQ29: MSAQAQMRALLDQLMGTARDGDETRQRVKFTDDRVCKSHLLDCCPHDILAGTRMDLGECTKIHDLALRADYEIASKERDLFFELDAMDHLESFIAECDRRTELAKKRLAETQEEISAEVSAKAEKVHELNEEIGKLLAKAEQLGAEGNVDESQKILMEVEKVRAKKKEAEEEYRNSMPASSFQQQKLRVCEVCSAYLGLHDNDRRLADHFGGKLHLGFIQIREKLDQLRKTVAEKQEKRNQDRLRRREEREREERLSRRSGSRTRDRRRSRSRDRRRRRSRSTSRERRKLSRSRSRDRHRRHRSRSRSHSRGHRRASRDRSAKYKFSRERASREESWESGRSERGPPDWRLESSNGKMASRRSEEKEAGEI
# The list shows a part of the results.
# Compound: Cc1cc(ccc1-c1ccccc1)C(=O)N1CCCN(CC1)C(=O)CCl [compound 10]
# Test: probe-labelled cysteine peptide fold change vs DMSO (competition) (log2 fold change); higher = less target engagement (more negative = stronger competition)
# Settings: THP-1, incubation time: 4 h
# 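Note: competitive profiling in live THP-1 cells: cysteine peptides tagged with an iodoacetamide desthiobiotin (IA-DTB) probe, intensity after compound treatment relative to DMSO-treated cells.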
Target,probe-labelled cysteine peptide fold change (10 µM),probe-labelled cysteine peptide fold change (50 µM)
LY75_O60449_1089_HFVSLCQK (UniProt O60449),0.00146,0.179
MACF1_Q9UPN3_5346_IAQLQEALLHCGK (UniProt Q9UPN3),0.0624,0.0886
MAP7D3_Q8IWC1_264_CTSDELR (UniProt Q8IWC1),-0.104,-0.466
MACF1_Q9UPN3_3368_QLCLEHDEK (UniProt Q9UPN3),0.282,-0.104
LY75_O60449_150_KGGSEESLCDQPYHEIYTR (UniProt O60449),-0.0718,-0.174
MARS_P56192_38_AEVLISTVGPEDCVVPFLTRPK (UniProt P56192),-0.0722,0.0548
LYRM7_Q5U5X0_97_DLLVENVPYCDAPTQK (UniProt Q5U5X0),-0.316,0.0174
LY75_O60449_501_MCPPDEGWKR (UniProt O60449),-0.278,-0.29
MARS_P56192_408_FVEGVCPFCGYEEARGDQCDK (UniProt P56192),0.00779,-0.212
MAT2A_P31153_56_VACETVAK (UniProt P31153),-0.251,-0.00358
MACF1_Q9UPN3_3173_HQISSSNECK (UniProt Q9UPN3),-0.0495,-0.17
MAP1S_Q66K74_738+743_SASPHDVDLCLVSPCEFEHR (UniProt Q66K74),-0.547,-0.135
LUC7L3_O95232_40_YYLCGFCPAELFTNTR (UniProt O95232),0.055,0.000444
MAP1S_Q66K74_841_HDPLPDPLKVPPPLPDPSSICMVDPEMLPPK (UniProt Q66K74),-0.162,-0.971
MACF1_Q9UPN3_919_VISPTGNEAMVPSVCFLIPPPNK (UniProt Q9UPN3),0.24,0.296
MAT2B_Q9NZL9_93_FEQVNLLDSNAVHHIIHDFQPHVIVHCAAER (UniProt Q9NZL9),-0.0429,-0.0239
MACF1_Q9UPN3_892_NDECVLEDNSQR (UniProt Q9UPN3),0.0852,0.00606
MAP4K4_O95819_269_FFSFIEGCLVK (UniProt O95819),-0.0412,0.582
MAP1S_Q66K74_435_VLFPGCTPPACLLDGLVR (UniProt Q66K74),0.137,0.173
LYPLA1_O75608_169_DISILQCHGDCDPLVPLMFGSLTVEK (UniProt O75608),0.178,-0.127
MACF1_Q9UPN3_3527_GSNSEIDVDSLNLCLQQYEDLK (UniProt Q9UPN3),0.128,-0.547
MAT2A_P31153_214_VHTIVISVQHDEEVCLDEMRDALK (UniProt P31153),-0.209,-0.294
LYPLA2_O95372_171_DLAILQCHGELDPMVPVR (UniProt O95372),-0.092,-0.0885
LUC7L_Q9NQ29_44_SHLLDCCPHDILAGTR (UniProt Q9NQ29),0.196,-0.12
LUC7L_Q9NQ29_97_ERDLFFELDAMDHLESFIAECDRR (UniProt Q9NQ29),0.215,0.0749
LYAR_Q9NX58_9_VFFTCNACGESVK (UniProt Q9NX58),0.115,0.165
